According to patent publication US20250346572A1, “NON-ACID INHIBITORS OF INOSITOL HEXAKISPHOSPHATE KINASE (IP6K) AND METHODS OF USE THEREOF” (Lieber Institute, Inc., priority 2022, published 2025):
At least one structure is not confirmed: it was looked up by name or label, or the drawing left a doubt.

Tested on: IP6K
Experiment: IP6K IC50 Data for Representative Compounds of Formula (I)
Format: biochemical
Design: key to the marks not given beside the values
Conditions: class symbols +, legend not given

SMILES | IC50
O=C1Nc2ccc(CO)cc2[C@]12CC[C@H](Oc1ccc(Cl)cn1)CC2 [Example 6, cis-4-[(5-chloro-2-pyridyl)oxy]-5′-(hydroxymethyl)spiro[cyclohexane-1,3′-indoline]-2′-one] | ++
COCCOCCOCCNC(=O)c1ccc2c(c1)[C@]1(CC[C@H](Oc3ncc(Cl)cc3Cl)CC1)C(=O)N2 [Example 20, cis-4-[(3,5-dichloro-2-pyridyl)oxy]-N-[2-[2-(2-methoxyethoxy)ethoxy]ethyl]-2′-oxo-spiro[cyclohexane-1,3′-indoline]-5′-carboxamide] | ++
